In article PMC10298087:
These are yes or no findings as the source states them, for the method shown. Binding seen in cells or lysates may run through a third protein. A yes stands for co-enrichment or nearness to the bait. Other partners may have been found.

Amino acid sequences for entries named in this document (tags omitted).
UniProt Q13263: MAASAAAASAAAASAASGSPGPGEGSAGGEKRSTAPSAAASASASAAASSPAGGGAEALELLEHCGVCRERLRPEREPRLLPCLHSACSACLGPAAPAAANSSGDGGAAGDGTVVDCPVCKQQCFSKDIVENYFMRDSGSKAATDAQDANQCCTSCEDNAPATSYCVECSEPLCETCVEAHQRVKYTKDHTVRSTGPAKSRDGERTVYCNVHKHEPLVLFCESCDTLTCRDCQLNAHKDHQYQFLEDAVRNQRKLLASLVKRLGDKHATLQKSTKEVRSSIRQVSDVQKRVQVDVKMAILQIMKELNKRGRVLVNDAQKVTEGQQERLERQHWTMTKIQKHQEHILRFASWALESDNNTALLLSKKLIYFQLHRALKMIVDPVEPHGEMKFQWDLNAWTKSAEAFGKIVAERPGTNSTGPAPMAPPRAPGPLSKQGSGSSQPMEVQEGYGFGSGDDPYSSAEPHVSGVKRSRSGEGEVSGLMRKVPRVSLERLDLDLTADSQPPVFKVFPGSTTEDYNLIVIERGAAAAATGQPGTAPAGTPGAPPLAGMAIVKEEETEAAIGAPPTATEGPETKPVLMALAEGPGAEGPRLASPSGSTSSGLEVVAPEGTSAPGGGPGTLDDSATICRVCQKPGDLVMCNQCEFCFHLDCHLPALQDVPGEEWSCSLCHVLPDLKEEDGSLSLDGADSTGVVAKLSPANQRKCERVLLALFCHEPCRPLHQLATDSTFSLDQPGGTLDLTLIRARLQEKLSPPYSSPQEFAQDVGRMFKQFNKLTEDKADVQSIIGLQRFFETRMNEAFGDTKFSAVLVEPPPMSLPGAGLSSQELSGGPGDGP

B1: ZNF567 (protein, UniProt Q8N184 1-647)
chain: MAQGSVSFNDVTVDFTQEEWQHLDHAQKTLYMDVMLENYCHLISVGCHMTKPDVILKLERGEEPWTSFAGHTCLEENWKAEDFLVKFKEHQEKYSRSVVSINHKKLVKEKSKIYEKTFTLGKNPVNSKNLPPEYDTHGRILKNVSELIISNLNPARKRLSEYNGYGKSLLSTKQETTHPEVKSHNQSARAFSHNEVLMQYQKTETPAQSFGYNDCEKSFLQRGGLITHSRPYKGENPSVYNKKRRATNIEKKHTCNECGKSFCRKSVLILHQGIHSEEKPYQCHQCGNAFRRKSYLIDHQRTHTGEKPFVCNECGKSFRLKTALTDHQRTHTGEKSYECLQCRNAFRLKSHLIRHQRTHTGEKPYECNDCGKSFRQKTTLSLHQRIHTGEKPYICKECGKSFHQKANLTVHQRTHTGEKPYICNECGKSFSQKTTLALHEKTHNEEKPYICSECGKSFRQKTTLVAHQRTHTGEKSYECPHCGKAFRMKSYLIDHHRTHTGEKPYECNECGKSFSQKTNLNLHQRIHTGEKPYVCNECGKSFRQKATLTVHQKIHTGQKSYECPQCGKAFSRKSYLIHHQRTHTGEKPYKCSECGKCFRQKTNLIVHQRTHTGEKPYVCNECGKSFSYKRNLIVHQRTHKGENIEMQ
B2: ZNF569 (protein, UniProt Q5MCW4 1-686)
chain: MTESQGTVTFKDVAIDFTQEEWKRLDPAQRKLYRNVMLENYNNLITVGYPFTKPDVIFKLEQEEEPWVMEEEVLRRHWQGEIWGVDEHQKNQDRLLRQVEVKFQKTLTEEKGNECQKKFANVFPLNSDFFPSRHNLYEYDLFGKCLEHNFDCHNNVKCLMRKEHCEYNEPVKSYGNSSSHFVITPFKCNHCGKGFNQTLDLIRHLRIHTGEKPYECSNCRKAFSHKEKLIKHYKIHSREQSYKCNECGKAFIKMSNLIRHQRIHTGEKPYACKECEKSFSQKSNLIDHEKIHTGEKPYECNECGKAFSQKQSLIAHQKVHTGEKPYACNECGKAFPRIASLALHMRSHTGEKPYKCDKCGKAFSQFSMLIIHVRIHTGEKPYECNECGKAFSQSSALTVHMRSHTGEKPYECKECRKAFSHKKNFITHQKIHTREKPYECNECGKAFIQMSNLVRHQRIHTGEKPYICKECGKAFSQKSNLIAHEKIHSGEKPYECNECGKAFSQKQNFITHQKVHTGEKPYDCNECGKAFSQIASLTLHLRSHTGEKPYECDKCGKAFSQCSLLNLHMRSHTGEKPYVCNECGKAFSQRTSLIVHMRGHTGEKPYECNKCGKAFSQSSSLTIHIRGHTGEKPFDCSKCGKAFSQISSLTLHMRKHTGEKPYHCIECGKAFSQKSHLVRHQRIHTH
B3: ZNF25 (protein, UniProt P17030 1-456)
chain: MNKFQGPVTLKDVIVEFTKEEWKLLTPAQRTLYKDVMLENYSHLVSVGYHVNKPNAVFKLKQGKEPWILEVEFPHRGFPEDLWSIHDLEARYQESQAGNSRNGELTKHQKTHTTEKACECKECGKFFCQKSALIVHQHTHSKGKSYDCDKCGKSFSKNEDLIRHQKIHTRDKTYECKECKKIFYHLSSLSRHLRTHAGEKPYECNQCEKSFYQKPHLTEHQKTHTGEKPFECTECGKFFYVKAYLMVHQKTHTGEKPYECKECGKAFSQKSHLTVHQRMHTGEKPYKCKECGKFFSRNSHLKTHQRSHTGEKPYECKECRKCFYQKSALTVHQRTHTGEKPFECNKCGKTFYYKSDLTKHQRKHTGEKPYECTECGKSFAVNSVLRLHQRTHTGEKPYACKECGKSFSQKSHFIIHQRKHTGEKPYECQECGETFIQKSQLTAHQKTHTKKRNAEK
B4: ZNF512 (protein, UniProt Q96ME7 1-567)
chain: MSSRLGAVPATSGPTTFKQQRSTRIVGAKNSRTQCSIKDNSFQYTIPHDDSLSGSSSASSCEPVSDFPASFRKSTYWMKMRRIKPAATSHVEGSGGVSAKGKRKPRQEEDEDYREFPQKKHKLYGRKQRPKTQPNPKSQARRIRKEPPVYAAGSLEEQWYLEIVDKGSVSCPTCQAVGRKTIEGLKKHMENCKQEMFTCHHCGKQLRSLAGMKYHVMANHNSLPILKAGDEIDEPSERERLRTVLKRLGKLRCMRESCSSSFTSIMGYLYHVRKCGKGAAELEKMTLKCHHCGKPYRSKAGLAYHLRSEHGPISFFPESGQPECLKEMNLESKSGGRVQRRSAKIAVYHLQELASAELAKEWPKRKVLQDLVPDDRKLKYTRPGLPTFSQEVLHKWKTDIKKYHRIQCPNQGCEAVYSSVSGLKAHLGSCTLGNFVAGKYKCLLCQKEFVSESGVKYHINSVHAEDWFVVNPTTTKSFEKLMKIKQRQQEEEKRRQQHRSRRSLRRRQQPGIELPETELSLRVGKDQRRNNEELVVSASCKEPEQEPVPAQFQKVKPPKTNHKRGRK
B5: ZNF550 (protein, UniProt Q7Z398 1-422)
chain: MAETKDAAQMLVTFKDVAVTFTREEWRQLDLAQRTLYREVMLETCGLLVSLGHRVPKPELVHLLEHGQELWIVKRGLSHATCAGDRAQVHTREPTTYPPVLSERAFLRGSLTLESSTSSDSRLGRARDEEGLLEMQKGKVTPETDLHKETHLGKVSLEGEGLGTDDGLHSRALQEWLSADVLHECDSQQPGKDALIHAGTNPYKCKQCGKGFNRKWYLVRHQRVHTGMKPYECNACGKAFSQSSTLIRHYLIHTGEKPYKCLECGKAFKRRSYLMQHHPIHTGEKPYECSQCRKAFTHRSTFIRHNRTHTGEKPFECKECEKAFSNRAHLIQHYIIHTGEKPYDCMACGKAFRCSSELIQHQRIHTGEKPYECTQCGKAFHRSTYLIQHSVIHTGEMPYKCIECGKAFKRRSHLLQHQRVHT
B6: ZNF12 (protein, UniProt P17014 1-697)
chain: MNKSLGPVSFKDVAVDFTQEEWQQLDPEQKITYRDVMLENYSNLVSVGYHIIKPDVISKLEQGEEPWIVEGEFLLQSYPDEVWQTDDLIERIQEEENKPSRQTVFIETLIEERGNVPGKTFDVETNPVPSRKIAYKNSLCDSCEKCLTSVSEYISSDGSYARMKADECSGCGKSLLHIKLEKTHPGDQAYEFNQNGEPYTLNEESLYQKIRILEKPFEYIECQKAFQKDTVFVNHMEEKPYKWNGSEIAFLQMSDLTVHQTSHMEMKPYECSECGKSFCKKSKFIIHQRTHTGEKPYECNQCGKSFCQKGTLTVHQRTHTGEKPYECNECGKNFYQKLHLIQHQRTHSGEKPYECSYCGKSFCQKTHLTQHQRTHSGERPYVCHDCGKTFSQKSALNDHQKIHTGVKLYKCSECGKCFCRKSTLTTHLRTHTGEKPYECNECGKFFSRLSYLTVHYRTHSGEKPYECNECGKTFYLNSALMRHQRVHTGEKPYECNECGKLFSQLSYLTIHHRTHSGVKPYECSECGKTFYQNSALCRHRRIHKGEKPYECYICGKFFSQMSYLTIHHRIHSGEKPYECSECGKTFCQNSALNRHQRTHTGEKAYECYECGKCFSQMSYLTIHHRIHSGEKPFECNECGKAFSRMSYLTVHYRTHSGEKPYECTECGKKFYHKSAFNSHQRIHRRGNMNVIDVGRLL

What follows are binders tested against wild-type TRIM28 (endogenous, K562 cells) (human (endogenous in K562)) (UniProt Q13263) (assay: affinity purification with mass spectrometry; IP of endogenous TRIM28 or TRIM28-K304Q from K562 cells with anti-TRIM28-N-conjugated protein A beads; washed, eluted with the antibody-generating peptide; MS (LTQ-Orbitrap Velos, Mascot)).

Row | binding | Binder
1 | binds | B1
2 | binds | B2
3 | binds | B3
4 | binds | B4
5 | binds | B5
6 | binds | B6
